Reference: PMC6101293
These are yes or no findings as the source states them, for the method shown. In cells and extracts the contact can be indirect. Here binding means that the protein was enriched with, or labelled near, the bait; the list need not be complete.

Amino acid sequences for entries named in this document (tags omitted).
UniProt P21359: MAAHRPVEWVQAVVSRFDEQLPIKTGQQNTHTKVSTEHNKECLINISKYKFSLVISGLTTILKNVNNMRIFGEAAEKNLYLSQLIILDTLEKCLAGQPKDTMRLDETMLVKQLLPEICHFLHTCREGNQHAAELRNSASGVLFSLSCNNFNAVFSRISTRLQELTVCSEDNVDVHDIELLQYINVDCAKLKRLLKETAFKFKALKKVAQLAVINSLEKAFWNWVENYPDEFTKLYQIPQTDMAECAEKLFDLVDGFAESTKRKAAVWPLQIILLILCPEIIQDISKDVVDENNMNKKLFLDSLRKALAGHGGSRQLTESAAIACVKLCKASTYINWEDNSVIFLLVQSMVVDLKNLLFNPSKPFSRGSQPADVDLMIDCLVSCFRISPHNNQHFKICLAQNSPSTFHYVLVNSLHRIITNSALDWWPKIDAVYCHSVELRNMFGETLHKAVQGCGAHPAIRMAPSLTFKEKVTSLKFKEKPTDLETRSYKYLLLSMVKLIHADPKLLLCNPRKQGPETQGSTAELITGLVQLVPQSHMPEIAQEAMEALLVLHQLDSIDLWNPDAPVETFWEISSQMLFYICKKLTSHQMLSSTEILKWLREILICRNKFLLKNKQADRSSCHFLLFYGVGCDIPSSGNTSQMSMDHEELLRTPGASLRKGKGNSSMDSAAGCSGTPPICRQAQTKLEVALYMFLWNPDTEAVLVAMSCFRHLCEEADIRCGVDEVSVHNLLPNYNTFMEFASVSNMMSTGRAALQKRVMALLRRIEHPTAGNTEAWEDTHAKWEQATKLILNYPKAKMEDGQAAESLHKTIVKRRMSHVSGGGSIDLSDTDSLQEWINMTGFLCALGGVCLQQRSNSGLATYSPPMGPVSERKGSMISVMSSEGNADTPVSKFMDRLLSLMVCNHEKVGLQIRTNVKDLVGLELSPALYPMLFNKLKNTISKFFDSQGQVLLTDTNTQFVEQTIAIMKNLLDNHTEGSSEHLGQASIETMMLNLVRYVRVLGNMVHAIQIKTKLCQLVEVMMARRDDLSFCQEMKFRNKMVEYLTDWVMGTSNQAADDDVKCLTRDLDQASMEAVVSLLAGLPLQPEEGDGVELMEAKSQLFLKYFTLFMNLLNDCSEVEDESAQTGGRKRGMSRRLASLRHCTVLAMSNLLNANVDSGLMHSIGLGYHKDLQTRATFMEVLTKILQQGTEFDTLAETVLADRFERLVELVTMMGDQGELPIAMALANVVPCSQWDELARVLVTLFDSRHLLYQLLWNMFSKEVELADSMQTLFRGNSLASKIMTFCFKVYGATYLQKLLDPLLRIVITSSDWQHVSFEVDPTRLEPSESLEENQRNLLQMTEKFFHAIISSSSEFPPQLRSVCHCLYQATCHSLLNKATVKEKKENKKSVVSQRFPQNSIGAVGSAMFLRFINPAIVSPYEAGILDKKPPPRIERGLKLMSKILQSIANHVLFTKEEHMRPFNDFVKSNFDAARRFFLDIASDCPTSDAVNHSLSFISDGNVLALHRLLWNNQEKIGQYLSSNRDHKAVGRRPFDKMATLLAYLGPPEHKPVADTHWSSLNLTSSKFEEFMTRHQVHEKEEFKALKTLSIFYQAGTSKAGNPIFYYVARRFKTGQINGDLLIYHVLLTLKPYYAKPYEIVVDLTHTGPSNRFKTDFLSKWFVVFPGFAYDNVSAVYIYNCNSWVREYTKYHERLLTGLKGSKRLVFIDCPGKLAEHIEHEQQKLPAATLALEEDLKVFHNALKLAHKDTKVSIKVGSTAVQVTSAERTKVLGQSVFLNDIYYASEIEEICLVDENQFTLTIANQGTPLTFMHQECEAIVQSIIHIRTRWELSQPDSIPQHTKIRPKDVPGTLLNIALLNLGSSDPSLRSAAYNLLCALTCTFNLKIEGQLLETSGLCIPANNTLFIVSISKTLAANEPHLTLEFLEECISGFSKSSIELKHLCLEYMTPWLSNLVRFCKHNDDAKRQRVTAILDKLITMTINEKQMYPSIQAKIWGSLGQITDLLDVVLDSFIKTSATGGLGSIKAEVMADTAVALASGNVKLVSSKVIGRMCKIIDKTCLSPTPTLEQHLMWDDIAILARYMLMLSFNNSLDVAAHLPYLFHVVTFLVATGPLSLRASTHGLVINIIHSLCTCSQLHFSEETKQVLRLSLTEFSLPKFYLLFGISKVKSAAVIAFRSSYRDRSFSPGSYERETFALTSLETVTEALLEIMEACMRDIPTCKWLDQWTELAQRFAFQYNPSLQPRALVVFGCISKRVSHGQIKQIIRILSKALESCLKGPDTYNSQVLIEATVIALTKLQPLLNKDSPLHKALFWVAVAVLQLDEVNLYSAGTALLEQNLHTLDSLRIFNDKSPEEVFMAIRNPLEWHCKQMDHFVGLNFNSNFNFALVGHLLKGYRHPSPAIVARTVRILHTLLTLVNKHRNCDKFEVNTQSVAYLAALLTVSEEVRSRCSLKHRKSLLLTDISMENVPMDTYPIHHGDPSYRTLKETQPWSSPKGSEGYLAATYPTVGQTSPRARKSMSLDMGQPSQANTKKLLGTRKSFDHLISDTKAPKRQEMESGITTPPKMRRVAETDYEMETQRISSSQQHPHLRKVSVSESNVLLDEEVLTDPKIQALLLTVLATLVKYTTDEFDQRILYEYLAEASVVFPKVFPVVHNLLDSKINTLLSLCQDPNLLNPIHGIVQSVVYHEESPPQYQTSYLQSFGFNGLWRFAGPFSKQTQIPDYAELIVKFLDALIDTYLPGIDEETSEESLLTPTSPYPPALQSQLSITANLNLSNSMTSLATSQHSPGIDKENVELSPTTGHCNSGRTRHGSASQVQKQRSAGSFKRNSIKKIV
UniProt Q7Z698: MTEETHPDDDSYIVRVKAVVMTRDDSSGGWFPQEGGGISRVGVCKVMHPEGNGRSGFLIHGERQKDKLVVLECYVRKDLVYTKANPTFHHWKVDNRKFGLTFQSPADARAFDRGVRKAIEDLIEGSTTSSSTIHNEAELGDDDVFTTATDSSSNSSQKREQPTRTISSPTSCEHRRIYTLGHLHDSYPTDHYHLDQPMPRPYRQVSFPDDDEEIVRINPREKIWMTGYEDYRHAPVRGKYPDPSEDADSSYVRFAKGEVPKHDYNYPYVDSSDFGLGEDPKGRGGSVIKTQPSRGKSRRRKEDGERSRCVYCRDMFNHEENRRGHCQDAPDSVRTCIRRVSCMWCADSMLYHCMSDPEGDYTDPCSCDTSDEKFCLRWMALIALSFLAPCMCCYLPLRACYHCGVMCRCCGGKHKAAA

Molecular target: Neurofibromin 1 (NF1), endogenous (human (endogenous in A375 and 74T)) (UniProt P21359)
Assay: affinity purification with mass spectrometry; endogenous NF1 immunoprecipitated with anti-NF1 and protein A/G beads from 3 mg lysate of A375 or 74T cells (1% NP-40, 50 mM Tris-HCl pH 7.5, 150 mM NaCl, 0.5% deoxycholic acid, 0.1% SDS), overnight at 4°C, five washes; SDS-PAGE, digestion, LC-MS/MS; control normal rabbit IgG

binding | Molecule
binds | SPRED2, endogenous (from UniProt Q7Z698 1-418)
binds | CAPN1 small (regulatory, 28 kDa) subunit, endogenous (protein, UniProt P04632 1-268) MFLVNSFLKGGGGGGGGGGGLGGGLGNVLGGLISGAGGGGGGGGGGGGGGGGGGGGTAMRILGGVISAISEAAAQYNPEPPPPRTHYSNIEANESEEVRQFRRLFAQLAGDDMEVSATELMNILNKVVTRHPDLKTDGFGIDTCRSMVAVMDSDTTGKLGFEEFKYLWNNIKRWQAIYKQFDTDRSGTICSSELPGAFEAAGFHLNEHLYNMIIRRYSDESGNMDFDNFISCLVRLDAMFRAFKSLDKDGTGQIQVNIQEWLQLTMYS
